Measured data: PubChem BioAssay AID504764 (Drosophila RNAi Screening Center, 2011)
The screen tested about 22,000 reagents; this is a random part of those that have a named target and a result. Of all reagents, 403 (1.9%) got an active call. 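Unnormalised raw counts per well; ratio z-scores behind the hit calls and whether each hit raises or lowers signal are not deposited.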 Names joined by + are all predicted targets of the reagent. Reagent sequences are not shown. Not given: the amount of reagent.

- Aim: 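Genes whose knock-down alters Notch-dependent transcription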 (primary screen)
- System: Drosophila Kc167 cells
- Reagent: long dsRNA against Drosophila genes
- Timing: about 5 days (4 days dsRNA, then 24 h after transfection)
- Challenge: transfection of constitutively active membrane-tethered Notch lacking the extracellular domain, read 24 h later
- Read-out: 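Light from a Notch-responsive E(spl)m3 luciferase reporter under active Notch, with control-promoter and no-Notch reporter wells to normalise; raw counts from paired wells a and b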
- Direction: induced reporter light, run 1, well a and induced reporter light, run 1, well b: higher = more light from the Notch target reporter with active Notch; control promoter light, run 1, well a and control promoter light, run 1, well b: higher = more light from the viral control promoter (cell number, transfection, viability); uninduced reporter light, run 1, well a: higher = more light from the Notch target reporter without active Notch
- Call rule: 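Hit if the duplicate-averaged log2 ratio of induced to control-promoter light gives a plate-wise z beyond ±2, or induced to uninduced beyond ±1.8; weak-control or discordant-duplicate wells dropped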
- Calls: active = modifier hit (raised or lowered Notch signal); inactive = not a hit

no.	gene	amplicon	induced reporter light, run 1, well a	induced reporter light, run 1, well b	control promoter light, run 1, well a	control promoter light, run 1, well b	uninduced reporter light, run 1, well a	activity call
1	sxe2	DRSC15692	2.22e5	2.13e5	2.80e5	3.07e5	20370	inactive
2	CG6324	DRSC19985	72185	80570	1.06e5	1.08e5	11870	inactive
3	Cmpk	DRSC16643	1.75e5	1.82e5	2.53e5	2.72e5	10880	inactive
4	CG5810	DRSC15880	1.78e5	1.67e5	2.05e5	2.10e5	15950	inactive
5	CG32686	DRSC17645	59660	81650	72965	70850	5210	inactive
6	fig	DRSC16270	1.43e5	1.27e5	1.70e5	1.88e5	12390	inactive
7	Alms1b + Alms1a	DRSC18559	2.16e5	2.10e5	2.95e5	3.45e5	14285	inactive
8	Idgf5	DRSC06919	96000	1.14e5	2.01e5	1.93e5	9015	inactive
9	BigH1	DRSC15491	1.36e5	1.23e5	94830	83335	10130	inactive
10	Rlip	DRSC16828	1.83e5	1.49e5	1.98e5	1.83e5	12885	inactive
11	CG32708	DRSC18411	45395	51075	42555	61095	4200	inactive
12	Srpk79D	DRSC11668	1.55e5	1.42e5	75120	77945	8935	inactive
13	Srpk79D	DRSC11856	97780	1.07e5	1.16e5	1.17e5	8260	inactive
14	synr	DRSC02369	2.12e5	1.55e5	2.50e5	2.45e5	10015	inactive
15	mil	DRSC15696	1.42e5	1.58e5	1.79e5	1.90e5	13715	inactive
16	Or33b	DRSC03387	1.61e5	1.74e5	1.64e5	1.69e5	16145	inactive
17	Art2	DRSC00627	2.33e5	2.31e5	2.75e5	2.31e5	12405	inactive
18	CG7692	DRSC10902	1.35e5	1.63e5	2.34e5	1.84e5	7975	inactive
19	CG13192	DRSC06317	98755	99085	1.28e5	1.01e5	8580	inactive
20	CG13685	DRSC10043	3.04e5	2.20e5	3.09e5	1.86e5	14900	inactive
21	CG17707	DRSC20650	1.09e5	91720	1.03e5	1.33e5	9965	inactive
22	kud	DRSC11086	2.85e5	2.70e5	2.62e5	2.15e5	8805	active
23	CG31710	DRSC01089	1.12e5	1.14e5	1.41e5	1.28e5	8805	inactive
24	Atu	DRSC12123	1.52e5	1.19e5	94405	1.00e5	10080	inactive
25	mu2	DRSC08726	97215	93040	1.79e5	1.86e5	10360	inactive
26	CG34277 + CG31542	DRSC21544						inactive
27	Nep3	DRSC20685	82210	1.14e5	93755	1.04e5	10950	inactive
28	Smr	DRSC19495	7050	7380	8325	8375	3710	inactive
29	Smr	DRSC20288	6735	6280	10810	13525	1932	inactive
30	CG11699	DRSC19419	1.22e5	1.18e5	2.02e5	2.10e5	8495	inactive
31	Ilp7	DRSC17895	1.84e5	1.79e5	3.24e5	3.57e5	11935	inactive
32	CG32755	DRSC18397	1.28e5	1.40e5	2.67e5	2.16e5	9850	inactive
33	mRpL23	DRSC08307	1.26e5	1.15e5	1.48e5	1.93e5	5800	inactive
34	Cpr47Ed	DRSC07331	1.17e5	1.15e5	1.41e5	1.32e5	10282	inactive
35	CG9389	DRSC11857	1.45e5	1.12e5	1.03e5	1.49e5	10880	inactive
36	tos	DRSC03624	2.43e5	2.65e5	2.39e5	2.33e5	21400	inactive
37	Mkrn1	DRSC11870	1.47e5	1.41e5	1.73e5	1.30e5	8685	inactive
38	EMC5	DRSC02469	61090	46195	40625	65560	2605	inactive
39	CG10011	DRSC14174	1.31e5	1.33e5	1.71e5	2.04e5	8585	inactive
40	Ppa	DRSC04598	1.39e5	1.24e5	1.52e5	1.44e5	10595	inactive
41	ppk17	DRSC02252	1.34e5	1.37e5	1.47e5	1.61e5	11278	inactive
42	nompA	DRSC06329	91350	1.06e5	1.34e5	99215	9255	inactive
43	CG31245	DRSC15498	1.58e5	1.44e5	1.56e5	1.67e5	10945	inactive
44	CIAPIN1	DRSC03559	1.92e5	1.83e5	1.82e5	2.22e5	17665	inactive
45	PPP1R15	DRSC04422	1.31e5	1.48e5	1.42e5	1.33e5	11580	inactive
46	Pde6	DRSC16401	1.28e5	1.03e5	1.21e5	1.09e5	9755	inactive
47	Pde6	DRSC16402	2.53e5	2.26e5	1.83e5	1.90e5	16140	inactive
48	Pde6	DRSC16403	2.09e5	2.46e5	2.17e5	2.19e5	17085	inactive
49	Su(var)3-9	DRSC14484	92510	76825	89340	61805	4565	inactive
50	Kaz-m1	DRSC16990	1.41e5	1.24e5	1.86e5	1.77e5	12575	inactive
51	Irk2	DRSC15569	1.42e5	1.47e5	1.87e5	2.09e5	14338	inactive
52	sprt	DRSC07323	1.92e5	1.54e5	1.58e5	1.35e5	13755	inactive
53	mus201 + Chrac-14	DRSC03568	1.48e5	1.84e5	1.06e5	1.29e5	22950	inactive
54	mus201 + Chrac-14	DRSC03575	1.62e5	1.77e5	1.23e5	1.63e5	22450	inactive
55	CG10588	DRSC11628	41125	37585	45045	31480	3892	inactive
56	CG32075	DRSC10622	1.61e5	1.46e5	1.55e5	2.16e5	8890	inactive
57	CG12849	DRSC04129	1.67e5	1.31e5	1.63e5	1.55e5	10455	inactive
58	LpR2	DRSC13726	1.74e5	2.13e5	1.76e5	1.95e5	13770	inactive
59	LpR2	DRSC13728	2.09e5	1.92e5	1.93e5	2.18e5	15635	inactive
60	LpR2	DRSC15655	1.58e5	2.04e5	2.22e5	2.09e5	13195	inactive
61	LpR2	DRSC15658	1.13e5	1.07e5	65895	78720	13280	inactive
62	CG30428	DRSC04041	1.45e5	1.66e5	2.76e5	2.35e5	9810	inactive
63	CG16756	DRSC18115	1.60e5	1.38e5	3.23e5	2.35e5	11742	inactive
64	PsGEF (retired record)	DRSC18600	1.11e5	1.05e5	1.46e5	1.58e5	7165	inactive
65	PsGEF (retired record)	DRSC18601	50785	49005	84030	76750	6845	inactive
